About 7,500 (2.1%) of roughly 360,000 compounds were called active. Inconclusive means that the source gave no clear call. Such entries were picked first, then a sample of the others. The call rests on the fitted dose curve; in most records, active means well fitted inhibition curve with a large enough effect; inconclusive means small, poorly fitted or top-dose-only effect, or effect the other way; inactive means flat fitted curve, though single readings scatter. A potency beside an inconclusive call is a rough fit, not a confirmed value.
Test: Nrf2 qHTS screen for inhibitors; further: nearly all actives have a fitted effect of over 60% in size
Conditions: A549 ARE-Fluc reporter, luciferase luminescence, 18-24 h; activity change, negative = inhibition: at 46 µM (top of the series)
Procedure, shortened: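 A549 ARE_Fluc cells, 5000/well, 5% FBS OPTI-MEM; compounds in dose-response, 18-24 h at 37 °C/5% CO2; CellTiter-Fluor viability read (Ex 405/Em 525), then BugLite luciferase luminescence = Nrf2 activity.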
On the % scale 0 is the no-effect control and ±100 the full control effect; potency means the concentration at half of the fitted maximal effect.

Row | SMILES | activity change, negative = inhibition | Potency
1 | CN1CCN(C2=C(Cl)C(=O)C(c3cnc(N4CCCCC4)s3)=C(Cl)C2=O)CC1 | inactive: 28.8% | 
2 | Cc1ccc(C2CC(c3cccs3)=NN2C(=O)CCl)cc1 (centres undefined) |  | inconclusive: 29.1 µM [falling, single point]
3 | CC1=CC2=NC(=O)/C(=C\c3cccn3CCOc3ccc(C)c(C)c3)C(=N)N2O1 | inactive: -4.29% | 
4 | O=C1C=CC(=O)N1Cc1cccnc1 | inactive: -15% | 
5 | CC(=O)c1ccc(NC(=O)CSc2nc(Nc3ccccc3)nc(N3CCOCC3)n2)cc1 |  | inconclusive: 23.1 µM [falling, single point]
6 | O=C(Nc1nc2ccc(S(=O)(=O)N3CCOCC3)cc2s1)c1cccs1 |  | inconclusive: 16.4 µM [activator, single point]
7 | O=C(/C=C/c1ccc(Cl)cc1)N1CCN(c2c(Cl)cccc2[N+](=O)[O-])CC1 |  | inconclusive: 29.1 µM [falling, single point]
8 | COc1ccc(C2OC34CCCCC3C(C#N)(C#N)C2(C#N)C(=N)O4)cc1 (centres undefined) | inactive: 3.26% | 
9 | O=C(N/N=C/c1ccoc1)c1ccc(Cl)cc1Cl | inactive: 15.2% | 
10 | c1cnc2nc3c4ccccc4c4ccccc4c3nc2c1 |  | inconclusive: 16.4 µM [falling, single point]
11 | COc1ccc(OC)c(CCNC(=O)Cn2ccc3cc(S(=O)(=O)N4CCCCC4)ccc32)c1 |  | inconclusive: 29.1 µM [falling, single point]
12 | S=c1[nH]nc(-c2cc(-c3ccccc3)n[nH]2)n1/N=C/c1ccc(Cl)cc1 |  | inconclusive: 29.1 µM [falling, single point]
13 | O=C(N/N=C/c1cc(Cl)cc([N+](=O)[O-])c1O)C(O)(c1ccccc1)c1ccccc1 |  | inconclusive: 29.1 µM [falling, single point]
14 | O=c1c2ccccc2nnn1CSc1nc2sc3c(c2c(=O)n1CC1CCCO1)CCC3 (centres undefined) |  | inconclusive: 29.1 µM [falling, single point]
15 | Clc1cccc(-c2ccc3ncnc(NCc4cccs4)c3c2)c1 |  | inconclusive: 23.1 µM [falling, single point]
16 | Cc1cc(-c2ccc(Cl)cc2)n2nc(N)nc2n1 | inactive: 2.32% | 
17 | CCN(CC)c1ccc(NC(=O)c2sc3ccccc3c2Cl)cc1 |  | inconclusive: 8.2 µM [activator, partial curve]
18 | O=C(c1ccc(F)cc1)C1CCN(C(=O)NC2CCCCC2)CC1 |  | inconclusive: 29.1 µM [falling, partial curve, poor fit]
19 | CC(=O)c1cc(NC(=O)c2ccccc2)c(=O)oc1C | inactive: 2.87% | 
20 | COc1ccc2oc(=O)c(C(=O)Nc3cccc(C(=O)O)c3)cc2c1 |  | inconclusive: 0.326 µM [activator, full curve]
21 | COc1ccc(C2=NOC(C(=O)NC3CCCCC3)C2)cc1OC (centres undefined) | inactive: -4.16% | 
22 | CC(C)(c1cc(Br)c(O)c(Br)c1)c1cc(Br)c(O)c(Br)c1 | inactive: 0.474% | 
23 | CCOC(=O)c1ccc(-c2nnc(-c3ccc(Cl)cc3Cl)o2)cc1 |  | inconclusive: 3.66 µM [activator, partial curve, poor fit]

Complete entries, looked up by structure.
CCN(CC)c1ccc(NC(=O)c2sc3ccccc3c2Cl)cc1 in the list: Potency: inconclusive: 8.2 µM [activator, partial curve]
c1cnc2nc3c4ccccc4c4ccccc4c3nc2c1 in the list: Potency: inconclusive: 16.4 µM [falling, single point]
S=c1[nH]nc(-c2cc(-c3ccccc3)n[nH]2)n1/N=C/c1ccc(Cl)cc1 in the list: Potency: inconclusive: 29.1 µM [falling, single point]
O=C(N/N=C/c1ccoc1)c1ccc(Cl)cc1Cl in the list: activity change, negative = inhibition: inactive: 15.2%

Next results.

Row | SMILES | activity change, negative = inhibition | Potency
24 | C/C(=N\NC(=S)NCc1ccccc1)c1ccco1 | inactive: -4.12% | 
25 | COc1ccc(CN=C2Nc3ccccc3CS2)cc1 |  | inconclusive: 0.731 µM [activator, full curve, poor fit]
26 | O=C(CCCl)N1CCN(c2nc(-c3ccccc3)cs2)CC1 | inactive: 7% | 
27 | CCOc1ccccc1NC(=O)NC1CCN(CC(=O)Nc2ccc3c(c2)OCCO3)CC1 |  | inconclusive: 29.1 µM [falling, single point]
28 | CC(C)C(NC(=O)c1ccc(C(C)(C)C)cc1)C(=O)N1CCCC1 (centres undefined) | inactive: 2.12% | 
29 | CCOC(=O)c1sc(NC(=O)c2ccc(S(=O)(=O)N3CCCCC3)cc2)nc1-c1ccccc1 |  | active: 23.1 µM
30 | O=c1[nH]cnc2c1c(-c1ccccc1)cn2-c1ccc(Br)cc1 |  | inconclusive: 29.1 µM [falling, single point]
31 | COc1ccc(-n2cc(C(=O)Nc3cc(F)ccc3F)c3ccccc3c2=O)cc1 | inactive: 15.7% | 
32 | CCOc1ccc(CC2c3cc(OCC)c(OCC)cc3CCN2C(=O)c2cc(OC)c(OC)c(OC)c2)cc1OCC (centres undefined) |  | inconclusive: 29.1 µM [falling, single point]
33 | O=C(Nc1ccc(F)cc1F)c1ccc2c(c1)CCN2S(=O)(=O)c1ccc(Cl)cc1 |  | inconclusive: 9.2 µM [falling, partial curve]
34 | CN(C(=O)c1cccc(NC(=O)Cc2ccc(NC(=O)C3CCCN(S(=O)(=O)c4cccc([N+](=O)[O-])c4)C3)cc2)c1)C1CCCC1 (centres undefined) |  | inconclusive: 29.1 µM [falling, single point]
35 | O=C(/C=C/c1cccs1)NNC(=O)c1cccc([N+](=O)[O-])c1 |  | inconclusive: 25.9 µM [activator, single point]
36 | COc1ccc(-c2nc(CS(=O)(=O)CC(=O)NCCc3cc(OC)ccc3OC)c(C)o2)cc1 |  | inconclusive: 32.6 µM [falling, single point]
37 | COc1ccc(OCc2cccc(C(=O)Nn3cc([N+](=O)[O-])cn3)c2)cc1 |  | inconclusive: 0.411 µM [activator, full curve, poor fit]
38 | O=C(CN(C(=O)CCC(=O)Nc1nccs1)c1cccc(F)c1)NCc1ccc(F)cc1 |  | inconclusive: 23.1 µM [falling, partial curve, poor fit]
39 | Cc1cc(C(=O)COC(=O)c2ccccc2O)c(C)n1Cc1cccs1 |  | active: 6.51 µM
40 | CCNC(=S)NN=C1c2ccccc2-c2ccccc21 |  | inconclusive: 18.4 µM [falling, partial curve]
41 | CCNC(=O)/C(C#N)=C/c1c(N2CCCCCC2)nc2c(C)cccn2c1=O |  | inconclusive: 13 µM [falling, partial curve, poor fit]
42 | CC(CCc1ccccc1)NS(=O)(=O)c1ccccc1 (centres undefined) |  | inconclusive: 0.184 µM [falling, full curve, poor fit]
43 | C=CCn1c(SCC(O)Cn2c3ccccc3c3ccccc32)nnc1-c1ccco1 (centres undefined) |  | inconclusive: 18.4 µM [falling, partial curve]
44 | COc1ccc(OC)c(NC(=S)NCCC(c2ccccc2)c2ccccc2)c1 |  | inconclusive: 29.1 µM [falling, single point]
45 | O=C(NC(=S)Nc1ccccc1N1CCN(C(=O)c2ccccc2)CC1)c1ccccc1F |  | inconclusive: 29.1 µM [falling, single point]
46 | CCN(CC)S(=O)(=O)c1ccc(N/N=C/c2ccc(O)cc2O)nc1 |  | inconclusive: 2.31 µM [falling, full curve]

Row | SMILES | activity change, negative = inhibition | Potency
47 | Cc1ccc(NC(=O)c2ncn(CCCN[C@H](C)c3cccc4ccccc34)n2)cc1C | inactive: 1.72% | 
48 | CCc1ccc(NSc2ccccc2[N+](=O)[O-])cc1 |  | inconclusive: 20.6 µM [falling, single point]
49 | COc1ccc(C(=O)NC(=S)Nc2ccc(S(=O)(=O)Nc3cc(OC)ncn3)cc2)cc1 | inactive: -16.4% | 
50 | CCC(c1nnnn1Cc1ccc2c(c1)OCO2)N1CCN(c2ccc(F)cc2)CC1 (centres undefined) |  | inconclusive: 13 µM [falling, partial curve]
51 | Cc1ccc2c(c1)N(CCC(=O)NCCCOC(C)C)C(=O)C(C)O2 (centres undefined) | inactive: 3.44% | 
52 | Cc1cc(NC(=O)/C=C/C(=O)N(c2ccccc2C)C(C(=O)NC2CCCC2)c2ccc(F)cc2)no1 (centres undefined) |  | inconclusive: 29.1 µM [falling, single point]
53 | COc1ccc(Nc2nc(-c3cccs3)nc3ccccc23)cc1S(=O)(=O)N1CCOCC1 |  | active: 9.2 µM
54 | O=c1cc(/C=C/c2ccccc2)oc2ccccc12 |  | inconclusive: 0.184 µM [activator, full curve, poor fit]
55 | Cc1ccc(Cn2c(CCCNC(=O)c3ccco3)nc3ccccc32)cc1 | inactive: 7.98% | 
56 | O=C(Cn1cnc2onc(-c3ccc(F)cc3)c2c1=O)Nc1cccc(C(F)(F)F)c1 |  | active: 23.1 µM
57 | O=C(OCC(=O)N1CCc2ccccc2C1)c1c(F)cccc1Cl |  | inconclusive: 9.2 µM [activator, partial curve]
58 | Cc1c(C2(O)CCCCC2)[nH]c2ncccc12 |  | inconclusive: 25.9 µM [activator, single point]
59 | O=C(CSc1ncccn1)Nc1ccc2c(c1)OCO2 |  | inconclusive: 16.4 µM [activator, partial curve, poor fit]
60 | O=C(CN1C(=O)NC2(CCCCC2)C1=O)Nc1ccc(Cl)c(S(=O)(=O)N2CCOCC2)c1 |  | active: 23.1 µM
61 | CN(Cc1ccccc1)C(=O)c1cccc(NC(=O)Cc2ccc(NC(=O)C3CCCN(C(=O)CCc4ccccc4)C3)cc2)c1 (centres undefined) |  | inconclusive: 29.1 µM [falling, single point]
62 | Cc1ccc(OCc2nc3ccccc3n2C)cc1 |  | inconclusive: 11.6 µM [activator, partial curve, poor fit]
63 | CCOC(=O)c1ccc(NC(=O)c2nc(SC(C)C)ncc2Cl)cc1 | inactive: 14.6% | 
64 | O=C(NCc1ccc(OC(F)(F)F)cc1)c1cccc2c1C(=O)c1ccc(N3CCC(Cc4ccccc4)CC3)cc1S2(=O)=O |  | inconclusive: 3.26 µM [falling, partial curve, poor fit]
65 | O=C(O)CCC(NC(=O)c1cncc(O)c1)C(=O)O (centres undefined) | inactive: 9.15% | 
66 | Cc1cccc(NC(=O)c2nc[nH]c2C(=O)N[C@H](C)c2ccccc2)c1 |  | inconclusive: 18.4 µM [falling, single point]
67 | CSc1nc(N)nc(SCC(=O)Nc2cccc(F)c2)c1C#N |  | inconclusive: 20.6 µM [falling, single point]
68 | Cc1ccc2cccc(NC(=O)c3ccc(-c4cccc(Cl)c4Cl)o3)c2n1 | inactive: 3.44% | 
69 | CC(C)(C)c1ccc(OC2=CS(=O)(=O)c3ccccc32)cc1 |  | inconclusive: 5.62 µM [activator, partial curve]

— PubChem BioAssay AID504444 (National Center for Advancing Translational Sciences (NCATS), 2011)
